Laboratory results published in article PMC8782181.
These are yes or no findings as the source states them, for the method shown. In cells and extracts the contact can be indirect. These calls come from enrichment with a bait or labelling near it, and not all partners need be listed. Values belong to the binder of their own block, whether it stands above or below them.

The chains behind the UniProt entries cited, without tags or fusion partners.
UniProt P53297: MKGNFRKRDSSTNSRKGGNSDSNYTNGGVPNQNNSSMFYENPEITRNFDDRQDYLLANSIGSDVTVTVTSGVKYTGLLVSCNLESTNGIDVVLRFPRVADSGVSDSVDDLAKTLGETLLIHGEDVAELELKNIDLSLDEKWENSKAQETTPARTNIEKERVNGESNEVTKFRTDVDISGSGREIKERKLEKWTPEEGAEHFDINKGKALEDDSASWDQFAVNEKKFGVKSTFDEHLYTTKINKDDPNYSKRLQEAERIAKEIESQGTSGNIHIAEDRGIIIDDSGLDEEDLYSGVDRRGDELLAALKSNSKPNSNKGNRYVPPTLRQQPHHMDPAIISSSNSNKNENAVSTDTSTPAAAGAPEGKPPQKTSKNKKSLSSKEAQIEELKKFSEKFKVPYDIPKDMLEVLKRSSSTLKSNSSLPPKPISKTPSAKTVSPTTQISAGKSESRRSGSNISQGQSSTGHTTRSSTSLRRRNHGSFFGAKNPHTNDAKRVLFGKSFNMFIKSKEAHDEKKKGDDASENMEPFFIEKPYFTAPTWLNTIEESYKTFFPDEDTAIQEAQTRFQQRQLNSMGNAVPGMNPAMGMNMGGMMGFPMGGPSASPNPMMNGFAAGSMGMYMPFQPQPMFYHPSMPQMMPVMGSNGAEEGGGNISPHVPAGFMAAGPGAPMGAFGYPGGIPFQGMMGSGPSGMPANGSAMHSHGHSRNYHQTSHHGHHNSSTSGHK

Target: Pbp1-myc (S. cerevisiae) (UniProt P53297)
Experiment: affinity purification with mass spectrometry; cells unstressed or glucose-depleted (10 min for Dcp1-myc, 60 min for Pbp1-myc), cross-linked with 0.8% formaldehyde; 20,000 g pellet of the lysate in Blob100 buffer (20 mM Tris-HCl pH 8, 100 mM NaCl, 1 mM MgCl2, 0.5% NP40) on anti-c-Myc magnetic beads, eluted with Myc peptide; label-free LC-MS/MS; hits are the proteins that cluster (Mfuzz) with the tagged bait across IP, pellet, supernatant, total and unbound fractions

B1: Nop4 (protein, UniProt P37838 1-685)
chain: MEETIENVEVPSSNVSKQNDDGLDMKTLFVRSIPQDVTDEQLADFFSNFAPIKHAVVVKDTNKRSRGFGFVSFAVEDDTKEALAKARKTKFNGHILRVDIAKRRDRSKKTSEVVEKSTPESSEKITGQNNEDEDDADGEDSMLKGKPKLIIRNMPWSCRDPVKLKKIFGRYGTVVEATIPRKRDGKLCGFAFVTMKKISNCRIALENTKDLKIDGRKVAVDFAVQKNRWEDYKKAQPEMNDKDDNESGNEDAEENHDDEEDENEEEDRQVDQASKNKESKRKAQNKREDFSVFVRNVPYDATEESLAPHFSKFGSVKYALPVIDKSTGLAKGTAFVAFKDQYTYNECIKNAPAAGSTSLLIGDDVMPEYVYEGRVLSITPTLVREDAGRMAEKNAAKRKEALGKAPGEKDRRNLYLLNEGRVVEGSKMADLLTNTDMEIREKSYKLRVEQLKKNPSLHLSMTRLAIRNLPRAMNDKALKALARKAVVEFATEVKNKERHPLSKEEIIRSTKEKYKFMGPDEIEAQKKKDKKSGVVKQAKVIMEVKGSTAGRSRGYGFVEFRDHKNALMGLRWLNCHAVTSDEILEGLNDDEKKQVDNDLGKGRRLCVEFAIENSNVVKRRREQLKQARTKRTRPDNEDTGDVGESENKKPKKEEATTPTNPDDKKMGDDIKRIIGFKRKRKHAKK
binding: binds

B2: Lsm1 (protein, UniProt P47017 1-172)
chain: MSANSKDRNQSNQDAKRQQQNFPKKISEGEADLYLDQYNFTTTAAIVSSVDRKIFVLLRDGRMLFGVLRTFDQYANLILQDCVERIYFSEENKYAEEDRGIFMIRGENVVMLGEVDIDKEDQPLEAMERIPFKEAWLTKQKNDEKRFKEETHKGKKMARHGIVYDFHKSDMY
binding: binds

B3: Map1 (protein, UniProt Q01662 11-387)
chain: SDQASHPTKIYCSGLQCGRETSSQMKCPVCLKQGIVSIFCDTSCYENNYKAHKALHNAKDGLEGAYDPFPKFKYSGKVKASYPLTPRRYVPEDIPKPDWAANGLPVSEQRNDRLNNIPIYKKDQIKKIRKACMLGREVLDIAAAHVRPGITTDELDEIVHNETIKRGAYPSPLNYYNFPKSLCTSVNEVICHGVPDKTVLKEGDIVNLDVSLYYQGYHADLNETYYVGENISKEALNTTETSRECLKLAIKMCKPGTTFQELGDHIEKHATENKCSVVRTYCGHGVGEFFHCSPNIPHYAKNRTPGVMKPGMVFTIEPMINEGTWKDMTWPDDWTSTTQDGKLSAQFEHTLLVTEHGVEILTARNKKSPGGPRQRIK
binding: binds

B6: Nce102 (protein, UniProt Q12207 1-173)
chain: MLALADNILRIINFLFLVISIGLISSLLNTQHRHSSRVNYCMFACAYGIFTDSLYGVFANFIEPLAWPLVLFTLDFLNFVFTFTAGTVLAVGIRAHSCNNSSYVDSNKITQGSGTRCRQAQAAVAFLYFSCAIFLAKTLMSVFNMISNGAFGSGSFSKRRRTGQVGVPTISQV
binding: binds

B7: Nat1 (protein, UniProt P12945 1-854)
chain: MSRKRSTKPKPAAKIALKKENDQFLEALKLYEGKQYKKSLKLLDAILKKDGSHVDSLALKGLDLYSVGEKDDAASYVANAIRKIEGASASPICCHVLGIYMRNTKEYKESIKWFTAALNNGSTNKQIYRDLATLQSQIGDFKNALVSRKKYWEAFLGYRANWTSLAVAQDVNGERQQAINTLSQFEKLAEGKISDSEKYEHSECLMYKNDIMYKAASDNQDKLQNVLKHLNDIEPCVFDKFGLLERKATIYMKLGQLKDASIVYRTLIKRNPDNFKYYKLLEVSLGIQGDNKLKKALYGKLEQFYPRCEPPKFIPLTFLQDKEELSKKLREYVLPQLERGVPATFSNVKPLYQRRKSKVSPLLEKIVLDYLSGLDPTQDPIPFIWTNYYLSQHFLFLKDFPKAQEYIDAALDHTPTLVEFYILKARILKHLGLMDTAAGILEEGRQLDLQDRFINCKTVKYFLRANNIDKAVEVASLFTKNDDSVNGIKDLHLVEASWFIVEQAEAYYRLYLDRKKKLDDLASLKKEVESDKSEQIANDIKENQWLVRKYKGLALKRFNAIPKFYKQFEDDQLDFHSYCMRKGTPRAYLEMLEWGKALYTKPMYVRAMKEASKLYFQMHDDRLKRKSDSLDENSDEIQNNGQNSSSQKKKAKKEAAAMNKRKETEAKSVAAYPSDQDNDVFGEKLIETSTPMEDFATEFYNNYSMQVREDERDYILDFEFNYRIGKLALCFASLNKFAKRFGTTSGLFGSMAIVLLHATRNDTPFDPILKKVVTKSLEKEYSENFPLNEISNNSFDWLNFYQEKFGKNDINGLLFLYRYRDDVPIGSSNLKEMIISSLSPLEPHSQNEILQYYL
binding: binds

B8: Nop12 (protein, UniProt Q08208 1-459)
chain: MSSAIDNLFGNIDEKKIESSVDKLFSSSCGPINKLEVKSKTRTVLPDSKKRERAAEADQEEKEASKPDVSDEQTEEVALPKVKKAKKSKRNDEDEDLEARYYAKLLNEEAEAEDDKPTVTKTDETSVPLTSAAKKVDFKEDELEKAERTVFIGNILSTVITSKKVYKEFKKLFGTNPIAETEESGNEKEEESSKKSDNNEFAIESIRFRSISFDEALPRKVAFVQQKFHKSRDTINAYIVYKNKSAVRKICSNLNAVVFQDHHLRVDSVAHPAPHDKKRSIFVGNLDFEEIEESLWKHFEPCGDIEYVRIIRDSKTNMGKGFAYVQFKDLQSVNKALLLNEKPMKSQKQEDENTKKPTKKARKLRVSRCKNMKKGTTIGTGLDRNGLTDSQRTRAGRAKKILGKADRATLGQEITIEGLRAKKGEGSTHLKKKKQRSATGRVTKRSIAFKKAQAEKSKK
binding: binds

More lines, now with the values ahead:

binding: binds
B4: Mis1 (protein, UniProt P09440 35-975)
chain: YHILSGRKLAQSIREKANDEIQAIKLKHPNFKPTLKIIQVGARPDSSTYVRMKLKASKDSNVDCIIEKLPAEITEVELLKKISDINDDDSIHGLLIQLPLPRHLDETTITNAVDFKKDVDGFHRYNAGELAKKGGKPYFIPCTPYGCMKLLEEAHVKLDGKNAVVLGRSSIVGNPIASLLKNANATVTVCHSHTRNIAEVVSQADIVIAACGIPQYVKSDWIKEGAVVIDVGINYVPDISKKSGQKLVGDVDFDSVKEKTSYITPVPGGVGPMTVAMLVSNVLLAAKRQFVESEKLPVIKPLPLHLESPVPSDIDISRAQSPKHIKQVAEELGIHSHELELYGHYKAKISPNIFKRLESRENGKYVLVAGITPTPLGEGKSTTTMGLVQALSAHLGKPSIANVRQPSLGPTLGVKGGAAGGGYAQVIPMDEFNLHLTGDIHAISAANNLLAAAIDTRMFHEATQKNDSTFYKRLVPRKKGIRKFTPSMQRRLKRLDIEKEDPDALTPEEVKRFARLNINPDTITIRRVVDINDRMLRQITIGEAATEKGFTRTTGFDITVASELMAILALSKSLHEMKERIGRMVIGADYDNKPVTVEDIGCTGALTALLRDAIKPNLMQTLEGTPVMVHAGPFANISIGASSVIADLMALKLVGSEKNPLNDKNIHEPGYVVTEAGFDFAMGGERFFDIKCRSSGLVPDAVVLVATVRALKSHGGAPNVKPGQSLPKEYTEENIDFVAKGVSNLVKQIENIKTFGIPVVVAINRFETDSQAEIEVIKKAALNAGASHAVTSNHWMEGGKGAVELAHAVVDATKEPKNFNFLYDVNSSIEDKLTSIVQKMYGGAKIEVSPEAQKKIDTYKKQGFGNLPICIAKTQYSLSHDPSLKGVPRGFTFPIRDVRASIGAGYLYALAAEIQTIPGLSTYAGYMAVEVDDDGEIEGLF

binding: binds
B5: Mrn1 (protein, UniProt Q08925 1-612)
chain: MVVSYNNNNNNNNNNNNNNISNNNNNNNMFPPFPSSDDFAMYQQSSSSGPYQETYASGPQNFGDAVYPMNGNFTLLPSDFTREPNDSFFYENDGIFDYQRIQQQPTQFQTKQRNDSQQQRFSQEQNFEIDNEVVHNNNRYYEYERSSNEVSPFDDENPNVLSDGMSPTIMATATAVTNANAPLPVNAQANNPLNFTSAPSRTVYLGNVPPNLSVKELLDHVRSGVVEDVKIIPEKMCAFVSFIDESAALLFHSDAILKRLNIGDRDIKIGWGKPTRIDPIVAARISTDGATRNVYIGRMTIEGEESHLSEEQLRVDLEEYGEIDCIKIIKEKGIAFIHFASILNAIKVVTNLPIRNPYYQNKRIFYGKDRCAFITKTQQHNAAQFLGVQPGMEHMIEFSDREFISNALLQQSAAAAAIATSAGGPNNLGNRTVYLGSLPKDVKIEEICNAVRGGLLQSIKLLNDRYVCFVTFIDPTAAAQFYAMSSLYGFTVQKKRCKVGWGKHSGPLPNALALAVSNGASRNVYVGNIDFVGDSLRDERVFTESNLRHIFQQYGEVEQINFLPEKNCCFINYTNISNAILALDKIKSNPYFKDLKINFGKDRCGNVPHQSR

binding: binds
B9: Ist2 (protein, UniProt P38250 1-946)
chain: MSQTITSLDPNCVIVFNKTSSANEKSLNVEFKRLNIHSIIEPGHDLQTSYAFIRIHQDNAKPLFSFLQNLDFIESIIPYHDTELSDDLHKLISISKSKILEAPKQYELYNLSNLTNNPKQSLYFAFLQNYIKWLIPFSFFGLSIRFLSNFTYEFNSTYSLFAILWTLSFTAFWLYKYEPFWSDRLSKYSSFSTIEFLQDKQKAQKKASSVIMLKKCCFIPVALLFGAILLSFQLYCFALEIFIKQIYNGPMISILSFLPTILICTFTPVLTVIYNKYFVEPMTKWENHSSVVNAKKSKEAKNFVIIFLSSYVPLLITLFLYLPMGHLLTAEIRTKVFNAFSILARLPTHDSDFIIDTKRYEDQFFYFIVINQLIQFSMENFVPSLVSIAQQKINGPNPNFVKAESEIGKAQLSSSDMKIWSKVKSYQTDPWGATFDLDANFKKLLLQFGYLVMFSTIWPLAPFICLIVNLIVYQVDLRKAVLYSKPEYFPFPIYDKPSSVSNTQKLTVGLWNSVLVMFSILGCVITATLTYMYQSCNIPGVGAHTSIHTNKAWYLANPINHSWINIVLYAVFIEHVSVAIFFLFSSILKSSHDDVANGIVPKHVVNVQNPPKQEVFEKIPSPEFNSNNEKELVQRKGSANEKLHQELGEKQPASSANGYEAHAATHANNDPSSLSSASSPSLSSSSSSSKTGVVKAVDNDTAGSAGKKPLATESTEKRNSLVKVPTVGSYGVAGATLPETIPTSKNYYLRFDEDGKSIRDAKSSAESSNATNNNTLGTESKLLPDGDAVDALSRKIDQIPKIAVTGGENNENTQAKDDAATKTPLIKDANIKPVVNAAVNDNQSKVSVATEQTKKTEVSTKNGPSRSISTKETKDSARPSNNNTTTTTTTDATQPHHHHHHHRHRDAGVKNVTNNSKTTESSSSSSAAKEKPKHKKGLLHKLKKKL

binding: binds
B10: Hxt1 (protein, UniProt P32465 1-570)
chain: MNSTPDLISPQKSNSSNSYELESGRSKAMNTPEGKNESFHDNLSESQVQPAVAPPNTGKGVYVTVSICCVMVAFGGFIFGWDTGTISGFVAQTDFLRRFGMKHHDGSHYLSKVRTGLIVSIFNIGCAIGGIVLAKLGDMYGRRIGLIVVVVIYTIGIIIQIASINKWYQYFIGRIISGLGVGGITVLSPMLISEVAPSEMRGTLVSCYQVMITLGIFLGYCTNFGTKNYSNSVQWRVPLGLCFAWALFMIGGMMFVPESPRYLVEAGRIDEARASLAKVNKCPPDHPYIQYELETIEASVEEMRAAGTASWGELFTGKPAMFQRTMMGIMIQSLQQLTGDNYFFYYGTIVFQAVGLSDSFETSIVFGVVNFFSTCCSLYTVDRFGRRNCLMWGAVGMVCCYVVYASVGVTRLWPNGQDQPSSKGAGNCMIVFACFYIFCFATTWAPIAYVVISECFPLRVKSKCMSIASAANWIWGFLISFFTPFITGAINFYYGYVFMGCMVFAYFYVFFFVPETKGLSLEEVNDMYAEGVLPWKSASWVPVSKRGADYNADDLMHDDQPFYKSLFSRK
